Assay results reported in US9617305B2 (priority 2011, dated 2017).
Part of at least one peptide drawing is inferred or uncertain, most often the ends. Where a SMILES comes first, the peptide text is derived from it. Bridges are numbered along the chain shown (N, C = ends).

The compounds below were run on female CD-1 mice. Settings: oral gavage, % distance travelled by charcoal front.
Type: in vivo
For `C[C@@H]1NC(=O)[C@@H]2CCCN2C(=O)[C@H](CC(N)=O)NC(=O)[C@@H]2CSSC[C@H](NC(=O)[C@H](CC(=O)O)NC(=O)[C@@H](N)CC(=O)O)C(=O)N[C@H]3CSSC[C@H](NC1=O)C(=O)N[C@@H]([C@@H](C)O)C(=O)NCC(=O)N[C@H](C(=O)N[C@@H](Cc1ccc(O)cc1)C(=O)O)CSSC[C@H](NC(=O)[C@H](Cc1ccc(O)cc1)NC(=O)[C@H](CCC(=O)O)NC3=O)C(=O)N2` [Peptide 4, DDCCEYCCNPACTGCY] (H-DDCCEYCCNPACTGCY-OH; disulfide 3-8, 4-12, 7-15 (inferred); N-terminus and C-terminus assumed), the “ED50 in the gastrointestinal transit assay in mice” value (“ED50” for short) was 6.3 µg/kg. For `C[C@@H]1NC(=O)[C@@H]2CCCN2C(=O)[C@H](CC(N)=O)NC(=O)[C@@H]2CSSC[C@H](N)C(=O)N[C@H]3CSSC[C@H](NC1=O)C(=O)N[C@@H]([C@@H](C)O)C(=O)NCC(=O)N[C@H](C(=O)N[C@@H](Cc1ccc(O)cc1)C(=O)O)CSSC[C@H](NC(=O)[C@H](Cc1ccccc1)NC(=O)[C@H](CCC(=O)O)NC3=O)C(=O)N2` [Peptide 2, CCEFCCNPACTGCY] (H-CCEFCCNPACTGCY-OH; disulfide 1-6, 2-10, 5-13 (inferred); N-terminus and C-terminus assumed), the “ED50” value was 2.06 µg/kg. For `CC(C)C[C@@H]1NC(=O)[C@H](CCC(=O)O)NC(=O)[C@@H]2CSSC[C@@H]3NC(=O)[C@H](C)NC(=O)[C@@H]4CCCN4C(=O)[C@H](CC(N)=O)NC(=O)[C@H](CSSC[C@H](N)C(=O)N2)NC(=O)[C@H](CSSC[C@@H](C(=O)N[C@@H](Cc2ccc(O)cc2)C(=O)O)NC(=O)CNC(=O)[C@H]([C@@H](C)O)NC3=O)NC1=O` [Peptide 1, CCELCCNPACTGCY] (H-CCELCCNPACTGCY-OH; disulfide 1-6, 2-10, 5-13 (inferred); N-terminus and C-terminus assumed), the “ED50” value was 0.43 µg/kg. `CC(C)C[C@@H]1NC(=O)[C@H](CCC(=O)O)NC(=O)[C@@H]2CSSC[C@@H]3NC(=O)[C@H](C)NC(=O)[C@@H]4CCCN4C(=O)[C@H](CC(N)=O)NC(=O)[C@H](CSSC[C@H](NC(=O)[C@H](CC(=O)O)NC(=O)[C@H](CC(=O)O)NC(=O)[C@@H](N)CC(=O)O)C(=O)N2)NC(=O)[C@H](CSSC[C@@H](C(=O)N[C@@H](Cc2ccc(O)cc2)C(=O)O)NC(=O)CNC(=O)[C@H]([C@@H](C)O)NC3=O)NC1=O` [Peptide 17, DDDCCELCCNPACTGCY] was tested, and the “ED50” value was 2.9 µg/kg. `C[C@@H]1NC(=O)[C@@H]2CCCN2C(=O)[C@H](CC(N)=O)NC(=O)[C@@H]2CSSC[C@H](NC(=O)[C@H](CC(=O)O)NC(=O)[C@H](CC(=O)O)NC(=O)[C@@H](N)CC(=O)O)C(=O)N[C@H]3CSSC[C@H](NC1=O)C(=O)N[C@@H]([C@@H](C)O)C(=O)NCC(=O)N[C@H](C(=O)N[C@@H](Cc1ccc(O)cc1)C(=O)O)CSSC[C@H](NC(=O)[C@H](Cc1ccc(O)cc1)NC(=O)[C@H](CCC(=O)O)NC3=O)C(=O)N2` [Peptide 5, DDDCCEYCCNPACTGCY] was tested, and the “ED50” value was 7.54 µg/kg.
